Article PMC4215230
No constants are given. Whether binding was seen depends on the method and setting. Some binding calls cover weakened binding; strength is not graded here.

Amino acid sequences for entries named in this document (tags omitted). A change or cut given only in a name is not applied to a line headed by its entry. Chains listed by the source or under a name are the forms on record and can include a tag or linker. Residues count along the entry.
UniProt P98066: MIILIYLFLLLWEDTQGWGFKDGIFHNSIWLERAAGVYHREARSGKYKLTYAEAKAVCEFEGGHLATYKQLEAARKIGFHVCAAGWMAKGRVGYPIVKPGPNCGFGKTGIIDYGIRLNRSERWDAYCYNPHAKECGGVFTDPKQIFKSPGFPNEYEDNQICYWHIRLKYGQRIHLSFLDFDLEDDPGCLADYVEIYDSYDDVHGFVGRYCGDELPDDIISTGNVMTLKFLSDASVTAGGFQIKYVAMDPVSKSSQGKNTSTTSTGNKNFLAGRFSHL
Full-length recombinant human TSG-6 (rhTSG-6): residues 18-277 of P98066
Wild type human TSG-6 Link module (Link_TSG6): residues 36-129 of P98066
Recombinant human PTX3 8-mer (pentraxin 3, wild type) (P26022, residues 18-381): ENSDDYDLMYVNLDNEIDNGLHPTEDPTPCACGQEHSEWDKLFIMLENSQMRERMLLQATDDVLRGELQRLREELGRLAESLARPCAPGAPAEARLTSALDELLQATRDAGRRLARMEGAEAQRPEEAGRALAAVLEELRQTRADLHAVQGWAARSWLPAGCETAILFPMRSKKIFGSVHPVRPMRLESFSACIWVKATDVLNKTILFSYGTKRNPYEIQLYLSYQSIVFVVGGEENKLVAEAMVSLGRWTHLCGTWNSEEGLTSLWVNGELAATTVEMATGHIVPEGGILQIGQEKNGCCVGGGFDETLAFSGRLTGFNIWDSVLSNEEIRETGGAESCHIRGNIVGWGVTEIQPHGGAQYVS
Dimer-forming mutant of the PTX3 N-terminal domain (N_PTX3_MUT) (P26022, form named): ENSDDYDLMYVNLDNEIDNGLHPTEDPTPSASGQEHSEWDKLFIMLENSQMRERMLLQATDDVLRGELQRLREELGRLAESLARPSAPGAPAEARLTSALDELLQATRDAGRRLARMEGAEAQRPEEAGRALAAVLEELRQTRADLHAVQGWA

What was measured:
[1] = target: Biotinylated Link_TSG6 (b-Link_TSG6; species A) (human) (UniProt P98066); experiment: QCM-D (quartz crystal microbalance with dissipation monitoring); b-Link_TSG6 immobilised on a streptavidin monolayer; PTX3 constructs flowed over, then buffer rinse; 23 °C; HEPES buffer (150 mM NaCl, 10 mM HEPES, pH 7.4, 2 mM CaCl2, 5 mM MgCl2); no HA; both purified
[2] = target: Wild type human TSG-6 Link module (Link_TSG6) (human) (UniProt P98066); experiment: spectroscopic ellipsometry; sequential binding: end-grafted HA film (837 kDa) first loaded with Link_TSG6 (5 μM) or rhTSG-6, free TSG-6 protein kept in solution, then PTX3 added (0.3 μM monomer); MNB4 antibody as probe for PTX3; HEPES buffer pH 7.4; both purified
[3] = target: Full-length recombinant human TSG-6 (rhTSG-6) (human) (UniProt P98066); experiment: spectroscopic ellipsometry; titration of Link_TSG6 or rhTSG-6 into an HA film with a constant amount of PTX3 (0.3 or 1 μM) in the solution phase, compared with no PTX3; HEPES buffer pH 7.4; both purified
[4] = target: Wild type human TSG-6 Link module (Link_TSG6) (human) (UniProt P98066); experiment: as above

Row | binding [1] | binding [2] | binding [3] | binding [4] | Substance
1 | binds |  |  |  | Dimer-forming mutant of the PTX3 N-terminal domain (N_PTX3_MUT) (from UniProt P26022 18-170) (domain or fragment)
2 | binds | binds | binds | binds | Recombinant human PTX3 8-mer (pentraxin 3, wild type) (from UniProt P26022 18-381)
